Results reported in paper PMC11102450.
Results are given in words; binding and its absence hold for the method and conditions named. In cells and extracts the contact can be indirect. Some entries that bind do so weakly or less than the wild type.

Molecular target: p53 (human (endogenous in A549 and HCC827)) (UniProt P04637)
Assay: co-IP; endogenous proteins in A549 and HCC827 cell lysates (RIPA buffer with protease inhibitor cocktail); incubated with anti-MYBBP1A or anti-p53 antibody or control IgG at 4 °C overnight, Protein A/G PLUS-Agarose beads 4 h, washed 3 times with RIPA buffer, western blot; GAS5-knockdown cells compared with control cells

B1: MYBBP1A (protein, UniProt Q9BQG0 1-1328)
chain: MESRDPAQPMSPGEATQSGARPADRYGLLKHSREFLDFFWDIAKPEQETRLAATEKLLEYLRGRPKGSEMKYALKRLITGLGVGRETARPCYSLALAQLLQSFEDLPLCSILQQIQEKYDLHQVKKAMLRPALFANLFGVLALFQSGRLVKDQEALMKSVKLLQALAQYQNHLQEQPRKALVDILSEVSKATLQEILPEVLKADLNIILSSPEQLELFLLAQQKVPSKLKKLVGSVNLFSDENVPRLVNVLKMAASSVKKDRKLPAIALDLLRLALKEDKFPRFWKEVVEQGLLKMQFWPASYLCFRLLGAALPLLTKEQLHLVMQGDVIRHYGEHVCTAKLPKQFKFAPEMDDYVGTFLEGCQDDPERQLAVLVAFSSVTNQGLPVTPTFWRVVRFLSPPALQGYVAWLRAMFLQPDLDSLVDFSTNNQKKAQDSSLHMPERAVFRLRKWIIFRLVSIVDSLHLEMEEALTEQVARFCLFHSFFVTKKPTSQIPETKHPFSFPLENQAREAVSSAFFSLLQTLSTQFKQAPGQTQGGQPWTYHLVQFADLLLNHSHNVTTVTPFTAQQRQAWDRMLQTLKELEAHSAEARAAAFQHLLLLVGIHLLKSPAESCDLLGDIQTCIRKSLGEKPRRSRTKTIDPQEPPWVEVLVEILLALLAQPSHLMRQVARSVFGHICSHLTPRALQLILDVLNPETSEDENDRVVVTDDSDERRLKGAEDKSEEGEDNRSSESEEESEGEESEEEERDGDVDQGFREQLMTVLQAGKALGGEDSENEEELGDEAMMALDQSLASLFAEQKLRIQARRDEKNKLQKEKALRRDFQIRVLDLVEVLVTKQPENALVLELLEPLLSIIRRSLRSSSSKQEQDLLHKTARIFTHHLCRARRYCHDLGERAGALHAQVERLVQQAGRQPDSPTALYHFNASLYLLRVLKGNTAEGCVHETQEKQKAGTDPSHMPTGPQAASCLDLNLVTRVYSTALSSFLTKRNSPLTVPMFLSLFSRHPVLCQSLLPILVQHITGPVRPRHQACLLLQKTLSMREVRSCFEDPEWKQLMGQVLAKVTENLRVLGEAQTKAQHQQALSSLELLNVLFRTCKHEKLTLDLTVLLGVLQGQQQSLQQGAHSTGSSRLHDLYWQAMKTLGVQRPKLEKKDAKEIPSATQSPISKKRKKKGFLPETKKRKKRKSEDGTPAEDGTPAATGGSQPPSMGRKKRNRTKAKVPAQANGTPTTKSPAPGAPTRSPSTPAKSPKLQKKNQKPSQVNGAPGSPTEPAGQKQHQKALPKKGVLGKSPLSALARKKARLSLVIRSPSLLQSGAKKKAQVRKAGKP
For B1, the binding was “binds”.
